Reference: article PMC10545476
These are yes or no findings as the source states them, for the method shown. In cells and extracts the contact can be indirect. Some results given as binding are weak or reduced against the parent protein; the word gives no strength.

The chains behind the UniProt entries cited, without tags or fusion partners. Residues count along the entry.
UniProt P46531, residues 19-2555: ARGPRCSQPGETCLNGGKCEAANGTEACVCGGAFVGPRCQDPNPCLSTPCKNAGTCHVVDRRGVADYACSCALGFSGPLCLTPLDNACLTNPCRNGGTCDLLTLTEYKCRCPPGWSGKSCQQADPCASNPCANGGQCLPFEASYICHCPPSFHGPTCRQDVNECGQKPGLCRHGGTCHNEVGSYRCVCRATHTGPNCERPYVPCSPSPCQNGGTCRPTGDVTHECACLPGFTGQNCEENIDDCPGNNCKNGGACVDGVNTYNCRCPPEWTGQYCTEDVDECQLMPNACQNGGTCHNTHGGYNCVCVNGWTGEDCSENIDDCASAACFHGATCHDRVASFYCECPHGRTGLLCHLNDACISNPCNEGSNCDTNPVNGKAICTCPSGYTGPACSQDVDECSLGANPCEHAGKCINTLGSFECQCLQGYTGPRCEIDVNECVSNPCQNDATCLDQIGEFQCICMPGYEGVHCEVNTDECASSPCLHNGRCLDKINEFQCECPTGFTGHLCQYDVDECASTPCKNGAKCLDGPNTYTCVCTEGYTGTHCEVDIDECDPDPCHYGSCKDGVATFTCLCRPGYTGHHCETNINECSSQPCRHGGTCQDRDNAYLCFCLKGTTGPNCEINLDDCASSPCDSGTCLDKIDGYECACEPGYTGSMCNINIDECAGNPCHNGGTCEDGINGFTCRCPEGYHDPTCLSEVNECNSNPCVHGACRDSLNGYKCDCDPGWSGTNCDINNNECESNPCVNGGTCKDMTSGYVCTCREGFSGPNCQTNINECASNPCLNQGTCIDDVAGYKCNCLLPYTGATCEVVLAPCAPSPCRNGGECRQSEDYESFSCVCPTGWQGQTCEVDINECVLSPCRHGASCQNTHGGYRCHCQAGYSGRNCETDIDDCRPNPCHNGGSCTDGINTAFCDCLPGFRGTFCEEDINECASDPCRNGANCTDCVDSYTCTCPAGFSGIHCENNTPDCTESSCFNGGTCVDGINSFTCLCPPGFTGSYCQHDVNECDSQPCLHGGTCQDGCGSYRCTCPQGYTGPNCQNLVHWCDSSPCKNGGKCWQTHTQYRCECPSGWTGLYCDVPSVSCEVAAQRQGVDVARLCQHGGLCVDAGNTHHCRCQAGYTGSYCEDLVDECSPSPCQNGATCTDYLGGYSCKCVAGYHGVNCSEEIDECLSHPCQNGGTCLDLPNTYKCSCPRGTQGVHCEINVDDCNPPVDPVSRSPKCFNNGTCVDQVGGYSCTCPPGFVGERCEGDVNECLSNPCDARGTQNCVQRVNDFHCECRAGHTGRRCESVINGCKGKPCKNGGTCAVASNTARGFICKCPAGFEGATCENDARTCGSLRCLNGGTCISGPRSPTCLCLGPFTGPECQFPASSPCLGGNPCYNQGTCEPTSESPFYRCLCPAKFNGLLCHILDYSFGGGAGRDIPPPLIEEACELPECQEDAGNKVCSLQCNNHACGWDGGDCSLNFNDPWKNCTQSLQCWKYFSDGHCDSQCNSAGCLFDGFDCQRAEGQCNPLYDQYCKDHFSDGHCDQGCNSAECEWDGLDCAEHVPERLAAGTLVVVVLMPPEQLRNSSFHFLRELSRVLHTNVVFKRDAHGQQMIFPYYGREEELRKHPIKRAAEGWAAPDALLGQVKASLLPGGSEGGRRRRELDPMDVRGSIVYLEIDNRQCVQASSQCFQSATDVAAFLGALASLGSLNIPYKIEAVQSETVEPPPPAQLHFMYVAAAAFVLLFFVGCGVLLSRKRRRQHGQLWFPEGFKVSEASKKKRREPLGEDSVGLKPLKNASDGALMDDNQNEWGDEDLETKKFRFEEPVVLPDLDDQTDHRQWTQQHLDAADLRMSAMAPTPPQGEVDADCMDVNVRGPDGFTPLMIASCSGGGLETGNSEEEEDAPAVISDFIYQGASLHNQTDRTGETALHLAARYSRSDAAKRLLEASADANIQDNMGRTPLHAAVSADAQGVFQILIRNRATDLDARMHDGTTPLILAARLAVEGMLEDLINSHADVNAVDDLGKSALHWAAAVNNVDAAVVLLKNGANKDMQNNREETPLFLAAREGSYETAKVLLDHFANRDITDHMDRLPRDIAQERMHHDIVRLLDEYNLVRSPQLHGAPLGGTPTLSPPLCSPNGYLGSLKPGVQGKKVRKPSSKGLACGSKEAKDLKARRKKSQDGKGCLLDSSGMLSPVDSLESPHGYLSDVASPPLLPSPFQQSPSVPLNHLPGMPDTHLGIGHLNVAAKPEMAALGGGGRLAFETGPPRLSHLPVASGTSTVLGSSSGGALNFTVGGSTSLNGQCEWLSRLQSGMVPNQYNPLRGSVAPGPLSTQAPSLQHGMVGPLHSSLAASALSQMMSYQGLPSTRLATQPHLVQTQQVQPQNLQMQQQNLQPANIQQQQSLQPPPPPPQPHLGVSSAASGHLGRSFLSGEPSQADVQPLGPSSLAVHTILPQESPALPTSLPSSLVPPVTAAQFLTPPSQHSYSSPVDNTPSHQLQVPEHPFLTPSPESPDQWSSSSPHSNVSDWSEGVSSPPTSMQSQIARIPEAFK

Molecular target: NOTCH1 (human (endogenous in hiPSC-derived retinal organoids)) (UniProt P46531)
Assay: proximity ligation; Duolink in situ PLA (green) on sections of human retinal organoids; mouse anti-NOTCH1 and mouse anti-CRB1 ECD antibodies conjugated to plus or minus oligonucleotide probes, incubated overnight at 4°C

binding: binds
B1: CRB1 (wild-type, in control retinal organoids) (protein, UniProt P82279 26-1406)
chain: FCNKNNTRCLSNSCQNNSTCKDFSKDNDCSCSDTANNLDKDCDNMKDPCFSNPCQGSATCVNTPGERSFLCKCPPGYSGTICETTIGSCGKNSCQHGGICHQDPIYPVCICPAGYAGRFCEIDHDECASSPCQNGAVCQDGIDGYSCFCVPGYQGRHCDLEVDECASDPCKNEATCLNEIGRYTCICPHNYSGVNCELEIDECWSQPCLNGATCQDALGAYFCDCAPGFLGDHCELNTDECASQPCLHGGLCVDGENRYSCNCTGSGFTGTHCETLMPLCWSKPCHNNATCEDSVDNYTCHCWPGYTGAQCEIDLNECNSNPCQSNGECVELSSEKQYGRITGLPSSFSYHEASGYVCICQPGFTGIHCEEDVNECSSNPCQNGGTCENLPGNYTCHCPFDNLSRTFYGGRDCSDILLGCTHQQCLNNGTCIPHFQDGQHGFSCLCPSGYTGSLCEIATTLSFEGDGFLWVKSGSVTTKGSVCNIALRFQTVQPMALLLFRSNRDVFVKLELLSGYIHLSIQVNNQSKVLLFISHNTSDGEWHFVEVIFAEAVTLTLIDDSCKEKCIAKAPTPLESDQSICAFQNSFLGGLPVGMTSNGVALLNFYNMPSTPSFVGCLQDIKIDWNHITLENISSGSSLNVKAGCVRKDWCESQPCQSRGRCINLWLSYQCDCHRPYEGPNCLREYVAGRFGQDDSTGYVIFTLDESYGDTISLSMFVRTLQPSGLLLALENSTYQYIRVWLERGRLAMLTPNSPKLVVKFVLNDGNVHLISLKIKPYKIELYQSSQNLGFISASTWKIEKGDVIYIGGLPDKQETELNGGFFKGCIQDVRLNNQNLEFFPNPTNNASLNPVLVNVTQGCAGDNSCKSNPCHNGGVCHSRWDDFSCSCPALTSGKACEEVQWCGFSPCPHGAQCQPVLQGFECIANAVFNGQSGQILFRSNGNITRELTNITFGFRTRDANVIILHAEKEPEFLNISIQDSRLFFQLQSGNSFYMLSLTSLQSVNDGTWHEVTLSMTDPLSQTSRWQMEVDNETPFVTSTIATGSLNFLKDNTDIYVGDRAIDNIKGLQGCLSTIEIGGIYLSYFENVHGFINKPQEEQFLKISTNSVVTGCLQLNVCNSNPCLHGGNCEDIYSSYHCSCPLGWSGKHCELNIDECFSNPCIHGNCSDRVAAYHCTCEPGYTGVNCEVDIDNCQSHQCANGATCISHTNGYSCLCFGNFTGKFCRQSRLPSTVCGNEKTNLTCYNGGNCTEFQTELKCMCRPGFTGEWCEKDIDECASDPCVNGGLCQDLLNKFQCLCDVAFAGERCEVDLADDLISDIFTTIGSVTVALLLILLLAIVASVVTSNKRATQGTYSPSRQEKEGSRVEMWNLMPPPAMERLI
